Assay results as given in publication PMC12767095.
These are yes or no findings as the source states them, for the method shown. Binding seen in cells or lysates may run through a third protein. A yes stands for co-enrichment or nearness to the bait. Other partners may have been found.

Protein sequences, listed by entry. Tags and fused reporters are not part of them.
UniProt Q04206: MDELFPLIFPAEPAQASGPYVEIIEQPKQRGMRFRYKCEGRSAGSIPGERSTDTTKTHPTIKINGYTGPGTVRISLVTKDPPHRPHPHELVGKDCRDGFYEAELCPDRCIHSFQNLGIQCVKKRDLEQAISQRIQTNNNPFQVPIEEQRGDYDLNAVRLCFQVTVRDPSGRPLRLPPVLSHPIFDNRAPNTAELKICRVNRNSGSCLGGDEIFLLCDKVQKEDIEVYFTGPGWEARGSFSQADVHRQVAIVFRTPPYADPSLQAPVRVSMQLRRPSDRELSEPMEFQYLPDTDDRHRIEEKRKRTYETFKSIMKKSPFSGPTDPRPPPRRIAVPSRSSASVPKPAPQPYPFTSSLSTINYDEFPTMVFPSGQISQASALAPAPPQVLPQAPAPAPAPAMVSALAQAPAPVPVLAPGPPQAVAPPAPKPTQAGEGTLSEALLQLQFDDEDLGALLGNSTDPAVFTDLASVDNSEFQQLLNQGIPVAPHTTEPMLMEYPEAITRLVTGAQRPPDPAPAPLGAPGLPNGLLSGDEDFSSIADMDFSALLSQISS

Columns and labels:
[1] = target: RELA (human (endogenous in TFE301-1)) (UniProt Q04206); assay: affinity purification with mass spectrometry; IP of RELA from TFE301-1 cells with an anti-RELA antibody, compared with an IgG control; MS on a Q-Exactive
[2] = target: RELA (human (endogenous in TFE301-1)), Q04206; assay: as above; settings: remark: other sources report otherwise

Row | binding [1] | binding [2] | Binder
1 | binds | – | DZIP3 (enzyme, UniProt Q86Y13 1-1208) MDSLPDEFFVRHPAVEDQRKEETENKLEKSSGQLNKQENDIPTDLVPVNLLLEVKKLLNAINTLPKGVVPHIKKFLQEDFSFQTMQREVAANSQNGEEIVPALTLRFLITQLEAALRNIQAGNYTAHQINIGYYLTLLFLYGVALTERGKKEDYTEAENKFLVMKMMIQENEICENFMSLVYFGRGLLRCAQKRYNGGLLEFHKSLQEIGDKNDHWFDIDPTEDEDLPTTFKDLLNNFIKTTESNIMKQTICSYLDCERSCEADILKNTSYKGFFQLMCSKSCCVYFHKICWKKFKNLKYPGENDQSFSGKKCLKEGCTGDMVRMLQCDVPGIVKILFEVVRKDEYITIENLGASYRKLISLKITDTDIRPKISLKFNTKDEMPIFKLDYNYFYHLLHIIIISGTDIVRQIFDEAMPPPLLKKELLIHKNVLESYYNHLWTNHPLGGSWHLLYPPNKELPQSKQFDLCLLLALIKHLNVFPAPKKGWNMEPPSSDISKSADILRLCKYRDILLSEILMNGLTESQFNSIWKKVSDILLRLGMMQEDIDKVKENPIENISLDYHQLSVYLGIPVPEIIQRMLSCYQQGIALQSITGSQRIEIEELQNEEEELSPPLMEYNINVKSHPEIQFAEINKDGTSIPSESSTESLKDLQEVKSKQRKKKKTKNKKNKDSKEDQVPYVVEKEEQLRKEQANPHSVSRLIKDDASDVQEDSAMEDKFYSLDELHILDMIEQGSAGKVTTDYGETEKERLARQRQLYKLHYQCEDFKRQLRTVTFRWQENQMQIKKKDKIIASLNQQVAFGINKVSKLQRQIHAKDNEIKNLKEQLSMKRSQWEMEKHNLESTMKTYVSKLNAETSRALTAEVYFLQCRRDFGLLHLEQTEKECLNQLARVTHMAASNLESLQLKAAVDSWNAIVADVRNKIAFLRTQYNEQINKVKQGFALSTLPPVQLPPPPPSPEILMQQFLGRPLVKESFFRPILTVPQMPAVCPGVVSATGQPRAPLMTGIAWALPAPVGDAVPPSAGLRSDPSIMNWERITDRLKTAFPQQTRKELTDFLRKLKDAYGKSLSELTFDEIVCKISQFIDPKKSQSQGKSVSNVNCVSPSHSPSQPDAAQPPKPAWRPLTSQGPATWEGASNPDEEEEEEEPCVICHENLSPENLSVLPCAHKFHAQCIRPWLMQQGTCPTCRLHVLLPEEFPGHPSRQLPKI
2 | – | binds | STUB1, Q9UNE7 1-303 (enzyme) MKGKEEKEGGARLGAGGGSPEKSPSAQELKEQGNRLFVGRKYPEAAACYGRAITRNPLVAVYYTNRALCYLKMQQHEQALADCRRALELDGQSVKAHFFLGQCQLEMESYDEAIANLQRAYSLAKEQRLNFGDDIPSALRIAKKKRWNSIEERRIHQESELHSYLSRLIAAERERELEECQRNHEGDEDDSHVRAQQACIEAKHDKYMADMDELFSQVDEKRKKRDIPDYLCGKISFELMREPCITPSGITYDRKDIEEHLQRVGHFDPVTRSPLTQEQLIPNLAMKEVIDAFISENGWVEDY
